Laboratory results as given in patent US20150164855A1, “KETONE BODIES AND KETONE BODY ESTERS FOR MAINTAINING OR IMPROVING MUSCLE POWER OUTPUT” (priority 2012, published 2015).

Assay: Flavour of ketone bodies assessed by a tasting panel
[1] = ~100 microliters tasted by panel of 8 tasters, qualitative bitterness, Ketones 1 to 8

CC(O)CC(=O)OCC(COC(=O)CC(C)O)OC(=O)CC(C)O (stereo not shown) [Ketone 5]
Flavour [1]: bitter

CC(O)CC(=O)OCCC(C)OC(=O)CC(C)O (stereo not shown) [Ketone 7]
Flavour [1]: very unpleasant although not bitter

CC(O)CC(=O)OC(C)CC(=O)OC(C)CC(=O)OCC[C@@H](C)OC(=O)CC(C)OC(=O)CC(C)OC(=O)CC(C)O (stereo partly drawn) [Ketone 10, (R)-1,3-butanediol ditriolide ester]
Flavour (tasted in the same manner as Ketones 1 to 8, Ketones 9 to 13): aversive flavour; also recorded: aversive to taste | Flavour (tasted in the same manner as Ketones 1 to 8, Ketones 9 to 13, listed as R 1,3 butandiol di triolide ester): aversive to taste

(R)-3-hydroxybutyrate-(R)-1,3-butanediol [Ketone 8]
Flavour (tasted in the same manner as Ketones 1 to 8, Ketones 9 to 13, listed as 8/13): Not bitter, non-aversive | Flavour (tasted in the same manner as Ketones 1 to 8, Ketones 9 to 13, listed as (R)-3-hydroxybutyrate-R-1,3-butanediol monoester): non-aversive to taste | Flavour [1]: acceptable flavour

Entries after “also recorded” stand apart in the source; their conditions may differ.
